# From the supplement of paper PMC8728848
# The other results are listed elsewhere or left out.
# B1: ArathEULS3 TAP (Arabidopsis thaliana) (protein)
# chain: IDENLYFQGGSMDEKTTGWRGGHVVEGLAGELEQLRARLEHHPQGQREPGGGGSLEITSLYKKAGFMEHHHQHHRHHQRDDGEDDRQSFGVPPPHVDAPPQPHGLYQSQPHFDPYAPTPQAPAPYRSETQFEPHAPPPYRSEPYFETPAPPPSFGHVSHVGHQSPNESYPPEHHRYGGYQQPSNSLLESHGDHSGVTHVAHHSSNQPQSSSGVYHKPDENRLPDNLAGLAGRATVKVYSKAEPNYNLTIRDGKVILAPADPSDEAQHWYKDEKYSTKVKDADGHPCFALVNKATGEAMKHSVGATHPVHLIRYVPDKLDESVLWTESKDFGDGYRTIRMVNNTRLNVDAYHGDSKSGGVRDGTTIVLWDWNKGDNQLWKIFPF
# Tests used:
# Experiment in all cases: glycan array binding signal (z-score within array); higher = stronger binding
# Settings in all cases: glycan notation: IUPAC condensed, linker removed
# [1] = target: Fuc(a1-2)Gal
# Procedure, shortened: (§1)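 From the Consortium for Functional Glycomics database, 3228 arrays were curated, keeping only those whose protein sequence was available. Binding is given as a within-array Z-score averaged across arrays sharing a protein sequence and across linkers. Negative Z-scores can be read as non-binding.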
# [2] = target: Fuc(a1-2)Gal(b1-3)GalNAc
# Procedure, shortened: as §1
# [3] = target: Fuc(a1-2)Gal(b1-3)GalNAc(a1-3)[Fuc(a1-2)]Gal(b1-4)Glc
# Procedure, shortened: as §1
# [4] = target: Fuc(a1-2)Gal(b1-3)GalNAc(a1-3)[Fuc(a1-2)]Gal(b1-4)GlcNAc
# Procedure, shortened: as §1
# [5] = target: Fuc(a1-2)Gal(b1-3)GalNAc(b1-3)Gal
# Procedure, shortened: as §1
# [6] = target: Fuc(a1-2)Gal(b1-3)GalNAc(b1-3)Gal(a1-4)Gal(b1-4)Glc
# Procedure, shortened: as §1
# [7] = target: Fuc(a1-2)Gal(b1-3)GalNAc(b1-4)[Neu5Ac(a2-3)]Gal(b1-4)Glc
# Procedure, shortened: as §1
# [8] = target: Fuc(a1-2)Gal(b1-3)GlcNAc
# Procedure, shortened: as §1
# [9] = target: Fuc(a1-2)Gal(b1-3)GlcNAc(b1-2)Man(a1-3)[Fuc(a1-2)Gal(b1-3)GlcNAc(b1-2)Man(a1-6)]Man(b1-4)GlcNAc(b1-4)GlcNAc
# Procedure, shortened: as §1
# [10] = target: Fuc(a1-2)Gal(b1-3)GlcNAc(b1-2)Man(a1-3)[Fuc(a1-2)Gal(b1-3)GlcNAc(b1-2)Man(a1-6)]Man(b1-4)GlcNAc(b1-4)[Fuc(a1-6)]GlcNAc
# Procedure, shortened: as §1
# [11] = target: Fuc(a1-2)Gal(b1-3)GlcNAc(b1-3)Gal(b1-4)Glc
# Procedure, shortened: as §1
# [12] = target: Fuc(a1-2)Gal(b1-3)GlcNAc(b1-3)GalNAc
# Procedure, shortened: as §1
# [13] = target: Fuc(a1-2)Gal(b1-3)GlcNAc(b1-3)[Fuc(a1-2)Gal(b1-3)GlcNAc(b1-6)]GalNAc
# Procedure, shortened: as §1
# [14] = target: Fuc(a1-2)Gal(b1-3)GlcNAc(b1-3)[Gal(b1-4)GlcNAc(b1-6)]Gal(b1-4)Glc
# Procedure, shortened: as §1
# [15] = target: Fuc(a1-2)Gal(b1-3)GlcNAc(b1-3)[Neu5Ac(a2-6)Gal(b1-4)GlcNAc(b1-6)]Gal(b1-4)Glc
# Procedure, shortened: as §1
# [16] = target: Fuc(a1-2)Gal(b1-3)GlcNAc6S
# Procedure, shortened: as §1
# [17] = target: Fuc(a1-2)Gal(b1-3)[Fuc(a1-4)]GlcNAc
# Procedure, shortened: as §1
# [18] = target: Fuc(a1-2)Gal(b1-3)[Fuc(a1-4)]GlcNAc(b1-2)Man(a1-3)[Fuc(a1-2)Gal(b1-3)[Fuc(a1-4)]GlcNAc(b1-2)Man(a1-3)]Man(b1-4)GlcNAc(b1-4)GlcNAc
# Procedure, shortened: as §1
# [19] = target: Fuc(a1-2)Gal(b1-3)[Fuc(a1-4)]GlcNAc(b1-2)Man(a1-3)[Fuc(a1-2)Gal(b1-3)[Fuc(a1-4)]GlcNAc(b1-2)Man(a1-6)]Man(b1-4)GlcNAc(b1-4)[Fuc(a1-6)]GlcNAc(b1-4)[Fuc(a1-6)]GlcNAc
# Procedure, shortened: as §1
# [20] = target: Fuc(a1-2)Gal(b1-3)[Fuc(a1-4)]GlcNAc(b1-3)[Fuc(a1-3)[Gal(b1-4)]GlcNAc(b1-6)]Gal(b1-4)Glc
# Procedure, shortened: as §1
# [21] = target: Fuc(a1-2)Gal(b1-3)[Fuc(a1-4)]GlcNAc(b1-3)[Gal(b1-4)GlcNAc(b1-6)]Gal(b1-4)Glc
# Procedure, shortened: as §1
# [22] = target: Fuc(a1-2)Gal(b1-4)Glc
# Procedure, shortened: as §1
# [23] = target: Fuc(a1-2)Gal(b1-4)Glc6S
# Procedure, shortened: as §1
# [24] = target: Fuc(a1-2)Gal(b1-4)GlcNAc
# Procedure, shortened: as §1
# [25] = target: Fuc(a1-2)Gal(b1-4)GlcNAc(b1-2)Man
# Procedure, shortened: as §1
# [26] = target: Fuc(a1-2)Gal(b1-4)GlcNAc(b1-2)Man(a1-3)[Fuc(a1-2)Gal(b1-4)GlcNAc(b1-2)Man(a1-6)]Man(b1-4)GlcNAc(b1-4)GlcNAc
# Procedure, shortened: as §1
# [27] = target: Fuc(a1-2)Gal(b1-4)GlcNAc(b1-2)Man(a1-3)[Fuc(a1-2)Gal(b1-4)GlcNAc(b1-2)Man(a1-6)]Man(b1-4)GlcNAc(b1-4)[Fuc(a1-6)]GlcNAc
# Procedure, shortened: as §1
# [28] = target: Fuc(a1-2)Gal(b1-4)GlcNAc(b1-2)[Fuc(a1-2)Gal(b1-4)GlcNAc(b1-4)]Man(a1-3)[Fuc(a1-2)Gal(b1-4)GlcNAc(b1-2)Man(a1-6)]Man(b1-4)GlcNAc(b1-4)GlcNAc
# Procedure, shortened: as §1
# [29] = target: Fuc(a1-2)Gal(b1-4)GlcNAc(b1-3)Gal(b1-4)GlcNAc
# Procedure, shortened: as §1
# [30] = target: Fuc(a1-2)Gal(b1-4)GlcNAc(b1-3)Gal(b1-4)GlcNAc(b1-2)Man(a1-3)[Fuc(a1-2)Gal(b1-4)GlcNAc(b1-3)Gal(b1-4)GlcNAc(b1-2)Man(a1-6)]Man(b1-4)GlcNAc(b1-4)GlcNAc
# Procedure, shortened: as §1
binder,measurement,setting,value
B1,glycan array binding signal (z-score),[1],1.07
same,glycan array binding signal (z-score),[2],-0.462
same,glycan array binding signal (z-score),[3],-1.24
same,glycan array binding signal (z-score),[4],-0.451
same,glycan array binding signal (z-score),[5],-1.31
same,glycan array binding signal (z-score),[6],0.136
same,glycan array binding signal (z-score),[7],1.75
same,glycan array binding signal (z-score),[8],0.613
same,glycan array binding signal (z-score),[9],-0.403
same,glycan array binding signal (z-score),[10],1.36
same,glycan array binding signal (z-score),[11],-0.174
same,glycan array binding signal (z-score),[12],0.099
same,glycan array binding signal (z-score),[13],-0.858
same,glycan array binding signal (z-score),[14],0.631
same,glycan array binding signal (z-score),[15],-1.08
same,glycan array binding signal (z-score),[16],1.8
same,glycan array binding signal (z-score),[17],-0.439
same,glycan array binding signal (z-score),[18],-0.065
same,glycan array binding signal (z-score),[19],-0.278
same,glycan array binding signal (z-score),[20],-1
same,glycan array binding signal (z-score),[21],-0.898
same,glycan array binding signal (z-score),[22],-0.52
same,glycan array binding signal (z-score),[23],0.624
same,glycan array binding signal (z-score),[24],0.315
same,glycan array binding signal (z-score),[25],-0.304
same,glycan array binding signal (z-score),[26],-0.08
same,glycan array binding signal (z-score),[27],-0.355
same,glycan array binding signal (z-score),[28],0.023
same,glycan array binding signal (z-score),[29],-0.473
same,glycan array binding signal (z-score),[30],2.35

# A second format for some results above:
binder | measurement | setting | value
B1 | glycan array binding signal (z-score) | [6] | 0.136
same | glycan array binding signal (z-score) | [7] | 1.75
